{"sequences": {"note": "Chains of the proteins cited; added tags and fusions are not shown. Lines headed by an entry give the natural chain unless they say otherwise; changes in a name come on top.", "UniProt Q8WXH5": "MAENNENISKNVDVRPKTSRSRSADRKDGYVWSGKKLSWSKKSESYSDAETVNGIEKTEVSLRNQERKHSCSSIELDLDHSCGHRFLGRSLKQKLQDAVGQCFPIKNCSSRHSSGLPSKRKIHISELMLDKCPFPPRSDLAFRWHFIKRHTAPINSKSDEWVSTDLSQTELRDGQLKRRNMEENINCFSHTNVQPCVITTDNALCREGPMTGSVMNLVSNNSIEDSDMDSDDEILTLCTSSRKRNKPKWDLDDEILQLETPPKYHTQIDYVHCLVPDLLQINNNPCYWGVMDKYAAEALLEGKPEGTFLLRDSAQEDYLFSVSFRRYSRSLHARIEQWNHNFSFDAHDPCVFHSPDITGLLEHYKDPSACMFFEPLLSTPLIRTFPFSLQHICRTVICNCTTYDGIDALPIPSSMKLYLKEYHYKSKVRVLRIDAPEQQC", "UniProt Q8WVD3": "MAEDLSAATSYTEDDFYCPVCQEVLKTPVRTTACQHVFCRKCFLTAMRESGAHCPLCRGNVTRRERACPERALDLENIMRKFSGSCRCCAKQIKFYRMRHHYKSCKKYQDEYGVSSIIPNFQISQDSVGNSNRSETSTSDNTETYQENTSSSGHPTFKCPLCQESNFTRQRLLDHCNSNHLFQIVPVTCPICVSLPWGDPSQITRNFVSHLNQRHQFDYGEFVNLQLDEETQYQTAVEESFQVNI", "UniProt Q8WZ60": "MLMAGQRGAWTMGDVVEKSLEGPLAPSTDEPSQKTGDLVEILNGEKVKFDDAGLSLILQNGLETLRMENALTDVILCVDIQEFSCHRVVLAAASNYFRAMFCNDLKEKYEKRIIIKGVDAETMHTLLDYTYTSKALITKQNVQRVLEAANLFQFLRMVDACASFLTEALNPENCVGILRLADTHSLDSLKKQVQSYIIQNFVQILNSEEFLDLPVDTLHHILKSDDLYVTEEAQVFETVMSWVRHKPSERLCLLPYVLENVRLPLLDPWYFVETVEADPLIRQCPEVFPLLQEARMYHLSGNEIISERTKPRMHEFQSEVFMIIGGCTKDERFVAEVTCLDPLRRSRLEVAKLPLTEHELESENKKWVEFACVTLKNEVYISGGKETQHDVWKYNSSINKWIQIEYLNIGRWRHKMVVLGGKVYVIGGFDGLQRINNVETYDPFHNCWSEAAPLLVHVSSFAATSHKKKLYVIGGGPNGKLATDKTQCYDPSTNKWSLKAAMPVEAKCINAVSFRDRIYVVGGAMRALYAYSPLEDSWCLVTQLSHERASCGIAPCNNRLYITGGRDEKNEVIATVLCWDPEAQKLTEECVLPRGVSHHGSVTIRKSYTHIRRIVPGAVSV", "UniProt Q8WWZ3": "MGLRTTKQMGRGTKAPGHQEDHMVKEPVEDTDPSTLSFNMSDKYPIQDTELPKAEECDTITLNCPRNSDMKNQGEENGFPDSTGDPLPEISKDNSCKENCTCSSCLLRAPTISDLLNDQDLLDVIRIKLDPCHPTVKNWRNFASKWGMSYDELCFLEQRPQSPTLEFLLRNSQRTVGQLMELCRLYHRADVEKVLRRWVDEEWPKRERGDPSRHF", "UniProt Q8WUR7": "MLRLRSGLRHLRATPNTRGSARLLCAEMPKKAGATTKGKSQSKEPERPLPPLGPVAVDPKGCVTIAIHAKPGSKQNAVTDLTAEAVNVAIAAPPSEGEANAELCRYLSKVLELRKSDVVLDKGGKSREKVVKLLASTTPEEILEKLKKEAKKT", "UniProt Q8WTS6": "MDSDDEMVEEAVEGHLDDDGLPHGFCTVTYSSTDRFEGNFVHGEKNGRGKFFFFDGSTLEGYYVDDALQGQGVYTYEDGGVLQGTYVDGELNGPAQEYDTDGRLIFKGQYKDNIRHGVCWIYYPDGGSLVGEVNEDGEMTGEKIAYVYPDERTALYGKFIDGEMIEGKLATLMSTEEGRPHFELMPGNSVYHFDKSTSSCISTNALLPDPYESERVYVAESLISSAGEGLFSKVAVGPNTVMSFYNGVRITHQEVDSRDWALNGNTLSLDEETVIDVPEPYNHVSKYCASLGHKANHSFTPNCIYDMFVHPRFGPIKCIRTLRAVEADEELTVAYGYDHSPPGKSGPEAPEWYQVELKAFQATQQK", "UniProt Q8WZ19": "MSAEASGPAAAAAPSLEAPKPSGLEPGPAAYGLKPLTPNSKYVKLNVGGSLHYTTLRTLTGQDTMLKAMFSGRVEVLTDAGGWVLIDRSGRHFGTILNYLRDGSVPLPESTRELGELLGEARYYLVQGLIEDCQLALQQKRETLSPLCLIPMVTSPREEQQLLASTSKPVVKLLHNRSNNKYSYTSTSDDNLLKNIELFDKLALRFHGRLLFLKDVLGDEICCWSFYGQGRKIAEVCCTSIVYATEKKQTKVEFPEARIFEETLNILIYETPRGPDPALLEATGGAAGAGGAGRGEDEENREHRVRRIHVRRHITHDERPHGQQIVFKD", "UniProt Q8TDJ6, whole entry": "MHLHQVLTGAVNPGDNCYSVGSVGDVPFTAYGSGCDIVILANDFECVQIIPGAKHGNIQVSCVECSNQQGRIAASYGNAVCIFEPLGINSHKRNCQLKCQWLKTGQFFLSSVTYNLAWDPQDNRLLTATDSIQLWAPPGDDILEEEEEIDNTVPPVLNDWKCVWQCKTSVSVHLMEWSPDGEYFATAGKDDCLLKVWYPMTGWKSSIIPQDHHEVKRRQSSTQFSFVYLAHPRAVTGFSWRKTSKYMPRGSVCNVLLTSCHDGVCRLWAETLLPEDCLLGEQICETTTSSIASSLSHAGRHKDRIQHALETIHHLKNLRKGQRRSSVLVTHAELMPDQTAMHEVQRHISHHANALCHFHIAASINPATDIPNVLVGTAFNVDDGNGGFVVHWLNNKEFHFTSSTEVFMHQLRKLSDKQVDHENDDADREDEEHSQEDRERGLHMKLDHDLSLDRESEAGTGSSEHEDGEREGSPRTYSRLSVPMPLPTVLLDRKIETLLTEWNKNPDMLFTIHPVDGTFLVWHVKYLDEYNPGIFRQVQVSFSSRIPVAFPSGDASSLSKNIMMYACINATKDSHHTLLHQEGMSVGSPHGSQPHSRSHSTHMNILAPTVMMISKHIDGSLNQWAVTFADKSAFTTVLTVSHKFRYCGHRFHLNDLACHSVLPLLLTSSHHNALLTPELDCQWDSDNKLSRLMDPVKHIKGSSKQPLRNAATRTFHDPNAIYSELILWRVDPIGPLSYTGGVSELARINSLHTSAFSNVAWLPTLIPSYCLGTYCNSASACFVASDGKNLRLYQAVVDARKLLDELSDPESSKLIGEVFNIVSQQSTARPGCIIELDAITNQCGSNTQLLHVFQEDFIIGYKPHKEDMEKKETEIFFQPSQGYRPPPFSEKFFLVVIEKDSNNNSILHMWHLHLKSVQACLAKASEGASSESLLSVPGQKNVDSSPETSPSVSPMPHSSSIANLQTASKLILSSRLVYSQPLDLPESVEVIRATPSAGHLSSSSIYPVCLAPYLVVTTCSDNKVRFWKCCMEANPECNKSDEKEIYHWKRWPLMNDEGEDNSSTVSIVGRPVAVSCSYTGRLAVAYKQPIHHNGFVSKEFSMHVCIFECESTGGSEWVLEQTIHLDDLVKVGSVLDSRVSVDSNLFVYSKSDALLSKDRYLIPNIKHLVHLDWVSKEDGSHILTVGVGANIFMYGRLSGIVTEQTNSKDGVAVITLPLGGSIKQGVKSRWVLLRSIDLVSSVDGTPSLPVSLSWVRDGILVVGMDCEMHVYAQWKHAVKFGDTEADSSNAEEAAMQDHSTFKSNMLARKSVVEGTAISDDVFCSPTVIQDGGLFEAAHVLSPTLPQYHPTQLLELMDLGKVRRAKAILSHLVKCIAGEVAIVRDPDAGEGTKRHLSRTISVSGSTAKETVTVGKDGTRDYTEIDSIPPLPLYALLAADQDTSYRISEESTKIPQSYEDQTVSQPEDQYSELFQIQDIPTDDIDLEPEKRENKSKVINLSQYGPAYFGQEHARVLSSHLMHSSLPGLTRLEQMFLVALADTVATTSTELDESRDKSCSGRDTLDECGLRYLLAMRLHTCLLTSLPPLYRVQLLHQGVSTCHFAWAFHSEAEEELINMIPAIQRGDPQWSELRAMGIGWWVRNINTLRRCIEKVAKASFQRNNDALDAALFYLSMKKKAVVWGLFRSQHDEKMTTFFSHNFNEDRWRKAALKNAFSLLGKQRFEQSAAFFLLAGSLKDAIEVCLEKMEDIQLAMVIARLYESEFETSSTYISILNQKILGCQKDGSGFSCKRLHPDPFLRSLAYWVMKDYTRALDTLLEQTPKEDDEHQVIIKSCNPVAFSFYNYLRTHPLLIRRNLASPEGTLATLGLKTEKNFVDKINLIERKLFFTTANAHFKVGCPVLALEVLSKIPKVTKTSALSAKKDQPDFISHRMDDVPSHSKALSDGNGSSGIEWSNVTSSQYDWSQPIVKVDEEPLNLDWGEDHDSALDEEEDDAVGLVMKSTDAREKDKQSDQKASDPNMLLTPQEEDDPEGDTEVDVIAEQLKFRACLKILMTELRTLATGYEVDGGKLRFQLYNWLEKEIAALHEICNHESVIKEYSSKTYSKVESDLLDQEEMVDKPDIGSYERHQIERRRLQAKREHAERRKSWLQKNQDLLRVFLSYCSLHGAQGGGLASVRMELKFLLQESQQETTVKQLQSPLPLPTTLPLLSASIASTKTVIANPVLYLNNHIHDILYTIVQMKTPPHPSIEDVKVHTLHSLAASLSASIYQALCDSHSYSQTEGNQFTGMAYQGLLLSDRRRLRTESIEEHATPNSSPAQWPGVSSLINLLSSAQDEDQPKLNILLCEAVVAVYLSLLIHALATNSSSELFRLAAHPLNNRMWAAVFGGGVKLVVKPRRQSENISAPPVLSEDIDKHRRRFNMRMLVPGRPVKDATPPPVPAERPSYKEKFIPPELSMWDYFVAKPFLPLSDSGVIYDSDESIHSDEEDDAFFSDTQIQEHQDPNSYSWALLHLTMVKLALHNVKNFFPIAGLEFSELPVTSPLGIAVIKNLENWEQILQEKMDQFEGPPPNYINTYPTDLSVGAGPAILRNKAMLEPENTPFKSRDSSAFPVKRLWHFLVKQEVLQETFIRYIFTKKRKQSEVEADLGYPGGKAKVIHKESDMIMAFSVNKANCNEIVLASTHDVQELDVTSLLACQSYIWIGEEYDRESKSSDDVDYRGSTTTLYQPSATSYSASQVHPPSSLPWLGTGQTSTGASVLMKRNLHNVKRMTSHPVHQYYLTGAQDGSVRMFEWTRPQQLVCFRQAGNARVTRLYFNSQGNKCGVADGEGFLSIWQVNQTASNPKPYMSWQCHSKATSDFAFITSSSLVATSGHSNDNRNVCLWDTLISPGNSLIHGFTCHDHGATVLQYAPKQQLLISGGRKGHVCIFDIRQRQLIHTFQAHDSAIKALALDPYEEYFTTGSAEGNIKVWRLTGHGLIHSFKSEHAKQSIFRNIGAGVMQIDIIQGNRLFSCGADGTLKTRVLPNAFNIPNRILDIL", "UniProt Q8TF50": "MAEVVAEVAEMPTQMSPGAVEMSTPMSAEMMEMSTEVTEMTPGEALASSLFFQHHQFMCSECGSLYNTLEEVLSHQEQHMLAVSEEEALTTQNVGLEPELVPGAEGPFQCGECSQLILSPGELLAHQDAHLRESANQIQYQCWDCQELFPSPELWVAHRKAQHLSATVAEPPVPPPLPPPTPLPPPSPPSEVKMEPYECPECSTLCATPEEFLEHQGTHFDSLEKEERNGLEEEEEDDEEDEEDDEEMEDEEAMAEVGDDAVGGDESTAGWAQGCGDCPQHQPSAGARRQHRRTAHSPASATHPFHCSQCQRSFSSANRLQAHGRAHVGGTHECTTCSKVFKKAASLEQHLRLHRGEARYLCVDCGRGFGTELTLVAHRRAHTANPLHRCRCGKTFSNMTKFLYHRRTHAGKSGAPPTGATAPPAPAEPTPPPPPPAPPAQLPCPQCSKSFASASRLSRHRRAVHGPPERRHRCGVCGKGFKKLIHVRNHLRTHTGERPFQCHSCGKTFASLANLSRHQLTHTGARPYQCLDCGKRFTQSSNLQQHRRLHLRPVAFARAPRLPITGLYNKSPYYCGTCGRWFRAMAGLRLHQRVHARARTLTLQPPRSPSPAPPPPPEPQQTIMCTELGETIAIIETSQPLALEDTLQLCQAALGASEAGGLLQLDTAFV", "UniProt Q8WWY3": "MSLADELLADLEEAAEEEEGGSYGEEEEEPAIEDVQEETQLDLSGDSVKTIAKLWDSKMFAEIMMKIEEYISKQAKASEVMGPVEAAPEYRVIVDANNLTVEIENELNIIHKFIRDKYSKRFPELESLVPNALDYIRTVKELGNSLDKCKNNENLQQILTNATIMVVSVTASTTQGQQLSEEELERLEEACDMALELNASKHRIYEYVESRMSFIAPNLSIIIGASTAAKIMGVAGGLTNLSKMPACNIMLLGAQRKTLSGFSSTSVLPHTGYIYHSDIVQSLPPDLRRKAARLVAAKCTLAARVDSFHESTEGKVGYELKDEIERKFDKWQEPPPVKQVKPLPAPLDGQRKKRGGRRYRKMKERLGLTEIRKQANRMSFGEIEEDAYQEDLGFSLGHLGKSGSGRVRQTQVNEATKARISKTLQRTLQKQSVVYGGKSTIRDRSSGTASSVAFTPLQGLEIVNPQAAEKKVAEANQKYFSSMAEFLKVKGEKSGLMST"}, "source": "the supplement of paper PMC12819154", "about": "“High-throughput peptide-centric local stability assay extends protein–ligand identification to membrane proteins, tissues and bacteria” (Nature Structural & Molecular Biology, 2025)", "note": "The list shows a part of the results. Small differences around the control level are noise.", "data": [{"compound": "Cc1nc(Nc2ncc(C(=O)Nc3c(C)cccc3Cl)s2)cc(N2CCN(CCO)CC2)n1 [dasatinib]", "test": "log2 fold change of tryptic peptide abundance, ligand vs vehicle (limited proteolysis) (log2 ratio); higher = more trypsin-susceptible (destabilized)", "settings": "ligand concentration: 5 uM; sample: K562 cleared lysate", "values": [{"target": "UniProt Q8WXH5 (peptide sequence: PEGTFLLR, peptide start residue: 399)", "log2 fold change": -0.0659}, {"target": "RNF138 (peptide sequence: TTACQHVFCR, peptide start residue: 31) (UniProt Q8WVD3)", "log2 fold change": 0.354}, {"target": "UniProt Q8WZ60 (peptide sequence: LADTHSLDSLK, peptide start residue: 180)", "log2 fold change": -0.338}, {"target": "EDARADD (peptide sequence: IKLDPCHPTVK, peptide start residue: 127) (UniProt Q8WWZ3)", "log2 fold change": -0.0938}, {"target": "C15orf40 (peptide sequence: GCVTIAIHAKPGSK, peptide start residue: 61) (UniProt Q8WUR7)", "log2 fold change": -0.0665}, {"target": "SETD7 (peptide sequence: AFQATQQK, peptide start residue: 359) (UniProt Q8WTS6)", "log2 fold change": -0.0209}, {"target": "KCTD13 (peptide sequence: LNVGGSLHYTTLR, peptide start residue: 45) (UniProt Q8WZ19)", "log2 fold change": 0.18}, {"target": "DMXL2 (peptide sequence: EIAALHEICNHESVIK, peptide start residue: 2080) (UniProt Q8TDJ6)", "log2 fold change": -0.49}, {"target": "ZNF526 (peptide sequence: RTAHSPASATHPFHCSQCQR, peptide start residue: 293) (UniProt Q8TF50)", "log2 fold change": 0.449}, {"target": "PRPF31 (peptide sequence: FDKWQEPPPVK, peptide start residue: 328) (UniProt Q8WWY3)", "log2 fold change": -0.127}]}]}
